The supplement of paper PMC10849652
The other results are listed elsewhere or left out.

Sequences of proteins named here, by UniProt entry; tags and fusion partners are left off. A change or cut given only in a name is not applied to a line headed by its entry.
UniProt Q69YQ0: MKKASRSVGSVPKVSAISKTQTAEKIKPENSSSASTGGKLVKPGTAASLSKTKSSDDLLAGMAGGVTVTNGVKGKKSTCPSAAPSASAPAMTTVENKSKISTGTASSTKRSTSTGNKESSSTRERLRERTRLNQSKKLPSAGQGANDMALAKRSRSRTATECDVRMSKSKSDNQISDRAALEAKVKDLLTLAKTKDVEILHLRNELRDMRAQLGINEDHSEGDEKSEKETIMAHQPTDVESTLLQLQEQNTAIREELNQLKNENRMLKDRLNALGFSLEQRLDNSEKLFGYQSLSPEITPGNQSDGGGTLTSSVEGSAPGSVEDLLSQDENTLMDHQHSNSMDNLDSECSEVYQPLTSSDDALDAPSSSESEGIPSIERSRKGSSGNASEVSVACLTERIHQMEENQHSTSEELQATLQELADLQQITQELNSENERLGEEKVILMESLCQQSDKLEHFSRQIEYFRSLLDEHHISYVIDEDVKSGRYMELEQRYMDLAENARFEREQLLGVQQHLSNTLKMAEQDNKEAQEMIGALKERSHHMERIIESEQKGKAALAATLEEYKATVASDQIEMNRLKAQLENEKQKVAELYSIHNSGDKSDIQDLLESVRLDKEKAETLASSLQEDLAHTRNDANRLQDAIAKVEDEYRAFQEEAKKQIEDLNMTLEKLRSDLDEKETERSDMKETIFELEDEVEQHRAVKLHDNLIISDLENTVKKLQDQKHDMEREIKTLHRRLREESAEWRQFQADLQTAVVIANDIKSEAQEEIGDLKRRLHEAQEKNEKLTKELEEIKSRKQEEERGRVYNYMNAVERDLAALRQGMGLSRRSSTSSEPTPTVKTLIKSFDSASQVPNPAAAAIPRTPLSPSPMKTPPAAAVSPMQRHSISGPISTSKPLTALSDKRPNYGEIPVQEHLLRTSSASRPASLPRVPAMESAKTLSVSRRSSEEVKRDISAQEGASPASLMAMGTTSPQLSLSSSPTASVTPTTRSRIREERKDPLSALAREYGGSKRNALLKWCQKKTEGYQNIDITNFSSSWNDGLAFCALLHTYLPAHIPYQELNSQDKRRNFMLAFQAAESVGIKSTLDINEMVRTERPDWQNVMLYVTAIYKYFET
UniProt O15269: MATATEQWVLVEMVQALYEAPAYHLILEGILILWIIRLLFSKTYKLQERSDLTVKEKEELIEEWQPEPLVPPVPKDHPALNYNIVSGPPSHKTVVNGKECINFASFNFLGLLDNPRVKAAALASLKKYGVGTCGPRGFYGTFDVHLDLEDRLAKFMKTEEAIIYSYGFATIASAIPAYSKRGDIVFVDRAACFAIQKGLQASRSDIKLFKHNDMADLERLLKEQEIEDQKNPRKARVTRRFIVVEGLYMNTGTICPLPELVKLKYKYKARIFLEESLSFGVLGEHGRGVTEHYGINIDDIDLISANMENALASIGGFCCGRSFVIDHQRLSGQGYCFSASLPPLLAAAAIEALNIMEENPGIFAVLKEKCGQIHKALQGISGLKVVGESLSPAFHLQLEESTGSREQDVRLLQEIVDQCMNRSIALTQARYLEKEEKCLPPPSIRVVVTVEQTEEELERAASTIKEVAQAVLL
UniProt P37108: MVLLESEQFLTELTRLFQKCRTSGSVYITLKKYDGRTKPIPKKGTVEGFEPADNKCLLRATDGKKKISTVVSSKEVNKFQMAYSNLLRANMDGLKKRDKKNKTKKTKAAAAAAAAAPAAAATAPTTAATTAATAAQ
UniProt Q14534: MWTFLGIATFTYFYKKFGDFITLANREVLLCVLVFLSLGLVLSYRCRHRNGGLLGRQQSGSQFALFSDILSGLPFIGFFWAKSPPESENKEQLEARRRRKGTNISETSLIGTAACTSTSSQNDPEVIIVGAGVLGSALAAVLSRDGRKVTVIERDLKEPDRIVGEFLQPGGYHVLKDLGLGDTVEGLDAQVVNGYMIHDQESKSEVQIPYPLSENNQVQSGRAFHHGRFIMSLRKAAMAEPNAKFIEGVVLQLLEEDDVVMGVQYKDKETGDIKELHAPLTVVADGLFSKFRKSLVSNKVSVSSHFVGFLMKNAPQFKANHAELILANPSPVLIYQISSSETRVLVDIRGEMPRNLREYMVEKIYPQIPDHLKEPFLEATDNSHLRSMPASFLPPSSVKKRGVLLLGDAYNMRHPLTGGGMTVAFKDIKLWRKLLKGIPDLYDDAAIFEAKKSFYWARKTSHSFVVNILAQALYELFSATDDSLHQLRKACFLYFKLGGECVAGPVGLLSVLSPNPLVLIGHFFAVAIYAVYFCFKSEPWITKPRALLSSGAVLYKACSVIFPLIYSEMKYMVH
UniProt Q15831: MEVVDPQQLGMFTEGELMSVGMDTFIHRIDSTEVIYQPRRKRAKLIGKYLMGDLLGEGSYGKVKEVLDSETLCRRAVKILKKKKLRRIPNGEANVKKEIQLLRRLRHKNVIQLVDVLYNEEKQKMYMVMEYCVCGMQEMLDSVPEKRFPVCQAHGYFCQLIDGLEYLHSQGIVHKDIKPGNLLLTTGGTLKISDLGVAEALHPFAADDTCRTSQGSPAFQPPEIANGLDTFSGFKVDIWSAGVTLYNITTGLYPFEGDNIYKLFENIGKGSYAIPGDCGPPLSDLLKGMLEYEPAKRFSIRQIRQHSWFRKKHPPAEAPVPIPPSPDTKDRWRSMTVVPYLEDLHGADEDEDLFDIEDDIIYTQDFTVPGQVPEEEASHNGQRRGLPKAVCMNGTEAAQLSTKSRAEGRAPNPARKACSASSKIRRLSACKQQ
UniProt Q8WW59: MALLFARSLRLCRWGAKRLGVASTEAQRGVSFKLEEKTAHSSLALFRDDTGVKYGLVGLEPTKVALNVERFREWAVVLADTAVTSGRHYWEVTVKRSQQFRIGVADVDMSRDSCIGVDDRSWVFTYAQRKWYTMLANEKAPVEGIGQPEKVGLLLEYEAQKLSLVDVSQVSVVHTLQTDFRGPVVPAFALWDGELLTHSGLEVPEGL
UniProt Q04837: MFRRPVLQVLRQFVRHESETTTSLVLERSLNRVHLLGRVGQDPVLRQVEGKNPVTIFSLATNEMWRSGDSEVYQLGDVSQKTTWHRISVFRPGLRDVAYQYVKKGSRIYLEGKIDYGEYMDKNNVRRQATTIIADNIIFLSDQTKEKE
UniProt O95793: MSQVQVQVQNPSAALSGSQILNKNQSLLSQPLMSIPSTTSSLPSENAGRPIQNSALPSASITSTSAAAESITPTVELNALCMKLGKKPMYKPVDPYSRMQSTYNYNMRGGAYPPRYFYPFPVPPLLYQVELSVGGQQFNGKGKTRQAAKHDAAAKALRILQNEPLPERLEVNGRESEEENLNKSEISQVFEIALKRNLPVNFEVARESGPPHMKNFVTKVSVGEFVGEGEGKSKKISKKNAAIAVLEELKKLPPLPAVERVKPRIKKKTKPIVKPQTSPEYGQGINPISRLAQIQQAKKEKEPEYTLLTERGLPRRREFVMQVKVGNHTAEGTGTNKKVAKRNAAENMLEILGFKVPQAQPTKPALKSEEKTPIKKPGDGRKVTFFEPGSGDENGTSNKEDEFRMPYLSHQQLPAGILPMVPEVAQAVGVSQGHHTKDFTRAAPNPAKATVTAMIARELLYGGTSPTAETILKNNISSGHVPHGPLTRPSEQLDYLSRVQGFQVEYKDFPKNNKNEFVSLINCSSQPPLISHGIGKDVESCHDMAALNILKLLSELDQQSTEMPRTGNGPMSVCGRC
UniProt Q9Y6E0: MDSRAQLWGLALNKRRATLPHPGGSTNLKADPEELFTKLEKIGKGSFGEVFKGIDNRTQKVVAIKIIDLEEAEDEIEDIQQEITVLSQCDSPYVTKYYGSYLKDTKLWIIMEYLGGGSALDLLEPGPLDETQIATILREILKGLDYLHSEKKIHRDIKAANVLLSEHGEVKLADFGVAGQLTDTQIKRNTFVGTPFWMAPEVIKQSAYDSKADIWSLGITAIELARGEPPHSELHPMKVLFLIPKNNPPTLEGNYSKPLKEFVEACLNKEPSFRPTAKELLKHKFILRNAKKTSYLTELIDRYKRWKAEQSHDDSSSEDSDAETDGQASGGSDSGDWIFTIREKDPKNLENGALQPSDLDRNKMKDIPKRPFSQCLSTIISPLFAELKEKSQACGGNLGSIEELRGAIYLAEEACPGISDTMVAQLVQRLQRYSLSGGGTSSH
UniProt Q96SB4, whole entry, looked up: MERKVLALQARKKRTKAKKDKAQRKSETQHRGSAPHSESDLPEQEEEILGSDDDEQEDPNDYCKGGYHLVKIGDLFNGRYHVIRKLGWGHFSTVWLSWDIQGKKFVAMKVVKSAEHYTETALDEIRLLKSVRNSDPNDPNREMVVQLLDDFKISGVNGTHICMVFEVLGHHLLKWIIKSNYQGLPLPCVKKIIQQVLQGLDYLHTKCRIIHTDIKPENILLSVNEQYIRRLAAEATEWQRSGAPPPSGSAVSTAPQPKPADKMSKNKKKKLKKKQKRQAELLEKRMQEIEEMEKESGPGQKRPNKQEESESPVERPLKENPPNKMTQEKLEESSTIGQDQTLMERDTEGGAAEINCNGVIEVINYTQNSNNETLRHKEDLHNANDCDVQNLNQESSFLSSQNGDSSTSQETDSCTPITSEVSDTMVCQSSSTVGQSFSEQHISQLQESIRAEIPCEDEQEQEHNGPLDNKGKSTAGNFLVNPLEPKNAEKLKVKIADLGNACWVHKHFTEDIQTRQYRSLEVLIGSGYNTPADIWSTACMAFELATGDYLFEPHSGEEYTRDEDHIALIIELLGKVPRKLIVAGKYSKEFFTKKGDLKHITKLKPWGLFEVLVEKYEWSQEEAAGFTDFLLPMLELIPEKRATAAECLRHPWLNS
UniProt P61009: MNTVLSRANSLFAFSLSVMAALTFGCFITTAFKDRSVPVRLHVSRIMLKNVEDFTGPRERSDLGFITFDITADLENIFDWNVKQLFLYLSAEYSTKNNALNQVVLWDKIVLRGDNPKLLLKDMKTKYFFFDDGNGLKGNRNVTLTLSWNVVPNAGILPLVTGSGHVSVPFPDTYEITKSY
UniProt P10124: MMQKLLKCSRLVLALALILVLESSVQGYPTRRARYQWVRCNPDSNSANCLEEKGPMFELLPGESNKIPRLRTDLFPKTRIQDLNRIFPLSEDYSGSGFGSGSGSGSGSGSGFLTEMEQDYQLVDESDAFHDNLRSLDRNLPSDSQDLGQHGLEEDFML
UniProt Q13243: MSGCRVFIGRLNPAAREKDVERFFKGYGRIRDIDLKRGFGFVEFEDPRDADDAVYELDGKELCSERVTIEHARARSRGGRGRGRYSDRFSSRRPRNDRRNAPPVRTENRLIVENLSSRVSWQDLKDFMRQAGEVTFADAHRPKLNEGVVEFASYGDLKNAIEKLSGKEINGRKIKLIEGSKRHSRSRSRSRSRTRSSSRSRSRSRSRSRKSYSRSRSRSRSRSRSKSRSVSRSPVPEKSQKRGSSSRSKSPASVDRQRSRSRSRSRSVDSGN
UniProt Q9BVQ7: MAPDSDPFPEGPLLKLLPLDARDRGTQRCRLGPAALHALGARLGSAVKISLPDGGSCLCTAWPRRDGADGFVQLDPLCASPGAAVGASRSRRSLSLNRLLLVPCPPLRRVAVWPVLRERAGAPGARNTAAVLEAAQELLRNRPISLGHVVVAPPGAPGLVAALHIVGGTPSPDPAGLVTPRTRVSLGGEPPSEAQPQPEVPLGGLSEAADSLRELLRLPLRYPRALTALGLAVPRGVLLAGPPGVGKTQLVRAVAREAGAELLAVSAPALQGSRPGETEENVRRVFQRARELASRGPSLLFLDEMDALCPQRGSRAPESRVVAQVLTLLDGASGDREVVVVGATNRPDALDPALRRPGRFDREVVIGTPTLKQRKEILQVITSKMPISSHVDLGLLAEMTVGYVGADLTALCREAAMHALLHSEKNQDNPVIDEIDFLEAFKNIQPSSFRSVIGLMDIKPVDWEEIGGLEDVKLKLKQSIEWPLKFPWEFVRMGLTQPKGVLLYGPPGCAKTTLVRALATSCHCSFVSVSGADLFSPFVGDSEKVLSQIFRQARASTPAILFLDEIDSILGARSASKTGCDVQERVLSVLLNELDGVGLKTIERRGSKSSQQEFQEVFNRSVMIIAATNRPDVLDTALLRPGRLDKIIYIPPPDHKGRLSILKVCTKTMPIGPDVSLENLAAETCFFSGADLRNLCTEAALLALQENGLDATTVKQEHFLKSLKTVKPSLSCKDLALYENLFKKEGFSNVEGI

Key:
Experiment in all cases: log2 fold change, soluble protein after heating vs DMSO (PISA); higher = thermal stabilisation; K562 cells, 10 uM, 30 min; active = over 0.2 and 3.5 SD of the protein, either way, in both replicates (recomputed)
[1] = compound: CC1=C(C=C(C=C1)NC(=O)C2=CC(=CC=C2)C(C)(C)C#N)NC3=CC4=C(C=C3)N=CN(C4=O)C
Outline: (§1)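 Soluble protein was quantified by TMTpro 16plex LC-MS/MS after channel sums were equalised. It was obtained as the supernatant after 21,000xg for 90 min from pooled aliquots of K562 cells (2×10^6 cells/mL, 10 μM compound, 30 min) heated for 3 min across 48°C-58°C and extracted in PBS with 0.5% NP-40 at 4°C. Thermal stability values are relative to control samples and come from duplicates. They are given as log2 fold changes.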

[2] = compound: CC1=C(C=C(C=C1)NC(=O)C2=CC(=CC=C2)N(C)C)NC(=O)C3=CC=C(C=C3)O
Outline: as §1

[3] = compound: CC1=CC=C(C=C1)SC2=C3C=C(SC3=CN=C2)C(=O)N
Outline: as §1

[4] = compound: CC1=NC(=CC=C1)C2=C(N=C(N2)C(C)(C)C)C3=CC4=NC=CN=C4C=C3
Outline: as §1

[5] = compound: CCCCN(Cc1ccc(C(=O)NO)cc1)C(=O)Nc1ccccc1 [Nexturastat A]
Outline: as §1

[6] = compound: CCCS(=O)(=O)Nc1ccc(F)c(C(=O)c2c[nH]c3ncc(-c4ccc(Cl)cc4)cc23)c1F [vemurafenib]
Outline: as §1

[7] = compound: CCCS(=O)(=O)Nc1ccc(F)c(C(=O)c2c[nH]c3ncc(Cl)cc23)c1F
Outline: as §1

[8] = compound: CCCc1cc(C)[nH]c(=O)c1CNC(=O)c1cc(-c2ccnc(N3CCN(C)CC3)c2)cc2c1cnn2C(C)C
Outline: as §1

[9] = compound: CCN(CC)Cc1ccc2cc(COC(=O)Nc3ccc(C(=O)NO)cc3)ccc2c1 [givinostat]
Outline: as §1

[10] = compound: CCN(CCCOc1ccc2c(Nc3cc(CC(=O)Nc4cccc(F)c4)[nH]n3)ncnc2c1)CCOP(=O)(O)O [barasertib]
Outline: as §1

[11] = compound: CC[C@@H]1C(=O)N(C)c2cnc(Nc3ccc(C(=O)NC4CCN(C)CC4)cc3OC)nc2N1C1CCCC1
Outline: as §1

[12] = compound: CC[C@@H]1C(=O)N(C)c2cnc(Nc3ccc(C(=O)N[C@H]4CC[C@H](N5CCN(CC6CC6)CC5)CC4)cc3OC)nc2N1C(C)C [volasertib]
Outline: as §1

[13] = compound: CC[C@H](C)N1C=C(C2=C(C=C(C=C21)C3=CN=C(C=C3)N4CCNCC4)C(=O)NCC5=C(C=C(NC5=O)C)C)C
Outline: as §1

[14] = compound: CC[C@H](C)[C@@H](C(=O)N[C@@H]([C@@H](C)O)C(=O)N[C@@H](CC(C)C)C(=O)[C@]1(CO1)C)NC(=O)[C@H]([C@@H](C)CC)N(C)C(=O)C [epoxomicin]
Outline: as §1

[15] = compound: CCn1c(C(=O)N(C2CC2)C2CC2)cc2c3c(ncn3C)c(Nc3cc(C)n(C)n3)nc21
Outline: as §1

[16] = compound: CCn1cc(-c2ccnc3[nH]c(-c4cccc(CN(C)C)c4)cc23)c(-c2ccc(NC(=O)N(C)C)cc2)n1
Outline: as §1

[17] = compound: CN(C)CC(=O)Nc1ccc2[nH]c(=O)c3ccccc3c2c1
Outline: as §1

[18] = compound: CN(CCOC1=CC=C(C=C1)C[C@H]2C(=O)NC(=O)S2)C3=CC=CC=N3 (racemic) [rosiglitazone]
Outline: as §1

[19] = compound: CN1C2=C(C3=C1C(=O)N(N=C3)CC4=CC(=CC=C4)N)SC(=C2)S(=O)C
Outline: as §1

[20] = compound: CN1CCC(CNc2ccc3ncc(-c4cccc(OC(F)(F)F)c4)n3n2)CC1
Outline: as §1

Measured: log2 fold change

SPECC1L (UniProt Q69YQ0)
inactive: [1] -0.02 | [2] 0.077 | [3] 0.037 | [4] 0.008 | [5] 0.023 | [6] 0.064 | [7] -0.053 | [8] -0.065 | [9] -0.004 | [10] 0.003 | [11] -0.006 | [12] 0.001 | [13] -0.033 | [14] 0.023 | [15] 0.01 | [16] 0.01 | [17] 0.008 | [18] 0.002 | [19] -0.012 | [20] -0.069

SPTLC1 (UniProt O15269)
inactive: [1] 0.074 | [2] 0.03 | [3] 0.08 | [4] -0.044 | [5] -0.006 | [6] 0.026 | [7] 0.067 | [8] 0.105 | [9] 0.044 | [10] 0.048 | [11] -0.001 | [12] -0.178 | [13] 0.135 | [14] 0.043 | [15] -0.03 | [16] -0.079 | [17] 0.045 | [18] 0.018 | [19] -0.013 | [20] 0.018

SRP14 (UniProt P37108)
inactive: [1] -0.052 | [2] 0.013 | [3] -0.047 | [4] -0.24 | [5] 0.291 | [6] -0.161 | [7] -0.087 | [8] 0.111 | [9] 0.035 | [10] -0.09 | [11] 0.165 | [12] 0.354 | [13] -0.033 | [14] -0.263 | [15] -0.004 | [16] 0.208 | [17] -0.15 | [18] -0.123 | [19] 0.29 | [20] 0.266

SPG7 (UniProt Q9UQ90)
inactive: [1] -0.021 | [2] -0.008 | [3] 0.016 | [4] -0.019 | [5] -0.004 | [6] 0.018 | [7] -0.021 | [8] -0.021 | [9] -0.023 | [10] -0.016 | [11] 0.027 | [12] -0.017 | [13] -0.018 | [14] 0.009 | [15] -0.015 | [16] 0.029 | [17] 0.007 | [18] -0.011 | [19] -0.011 | [20] -0.085

SQLE (UniProt Q14534)
inactive: [1] -0.009 | [2] -0.047 | [3] 0.064 | [4] -0.047 | [5] 0.003 | [6] 0.034 | [7] 0.032 | [8] 0.054 | [9] 0.046 | [10] -0.022 | [11] 0.082 | [12] 0.038 | [13] 0.06 | [14] 0.172 | [15] -0.015 | [16] -0.04 | [17] 0.101 | [18] 0.041 | [19] -0.073 | [20] 0.047

STK11 (UniProt Q15831)
inactive: [1] -0.075 | [2] -0.001 | [3] 0.03 | [4] -0.006 | [5] 0.019 | [6] -0.094 | [7] -0.007 | [8] -0.005 | [9] -0.055 | [10] -0.097 | [11] 0.028 | [12] 0.057 | [13] 0.027 | [14] 0.003 | [15] 0.031 | [16] -0.088 | [17] -0.028 | [18] 0.032 | [19] -0.019 | [20] -0.04

SPRYD4 (UniProt Q8WW59)
inactive: [1] 0.041 | [2] 0.014 | [3] 0.017 | [4] -0.017 | [5] 0.001 | [6] 0.042 | [7] -0.015 | [8] -0.059 | [9] -0.022 | [10] 0.013 | [11] 0.041 | [12] 0.093 | [13] -0.017 | [14] -0.056 | [15] 0.012 | [16] -0.105 | [17] -0.02 | [18] 0.033 | [19] -0.103 | [20] 0.023

SPTBN2 (UniProt O15020)
inactive: [1] 0.036 | [2] 0.015 | [3] -0.06 | [4] -0.019 | [5] 0.046 | [6] 0.112 | [7] 0.034 | [8] 0.078 | [9] 0.211 | [10] -0.02 | [11] 0.091 | [12] -0.188 | [13] 0.009 | [14] -0.043 | [15] -0.042 | [16] 0.057 | [17] 0.04 | [18] -0.013 | [19] 0.061 | [20] 0.093

SSBP1 (UniProt Q04837)
inactive: [1] -0.052 | [2] -0.006 | [3] -0.023 | [4] -0.105 | [5] 0.052 | [6] -0.04 | [7] -0.054 | [8] -0.036 | [9] -0.004 | [10] -0.015 | [11] 0.021 | [12] 0.164 | [13] -0.064 | [14] -0.013 | [15] 0.028 | [16] 0.029 | [17] -0.039 | [18] -0.024 | [19] 0.04 | [20] 0.025

STAU1 (UniProt O95793)
inactive: [1] 0.004 | [2] 0.037 | [3] -0.124 | [4] -0.092 | [5] 0.299 | [6] -0.227 | [7] -0.021 | [8] 0.162 | [9] 0.107 | [10] -0.061 | [11] 0.215 | [12] 0.46 | [13] 0.047 | [14] -0.406 | [15] 0.043 | [16] 0.23 | [17] -0.199 | [18] -0.12 | [19] 0.387 | [20] 0.261

STK24 (UniProt Q9Y6E0)
inactive: [1] -0.076 | [2] 0.005 | [3] -0.004 | [4] 0.065 | [5] -0.035 | [6] -0.006 | [7] 0.006 | [8] -0.012 | [9] -0.001 | [10] 0.004 | [11] 0 | [12] -0.09 | [13] 0.032 | [14] 0.017 | [15] 0.035 | [16] 0.012 | [17] 0.022 | [18] 0.045 | [19] -0.044 | [20] -0.189

SRPK1 (UniProt Q96SB4)
inactive: [1] 0.092 | [2] 0 | [3] -0.061 | [4] -0.107 | [5] 0.288 | [6] -0.14 | [7] -0.033 | [8] 0.122 | [9] -0.001 | [10] -0.094 | [11] 0.264 | [12] 0.422 | [13] 0.011 | [14] -0.303 | [15] 0.01 | [16] 0.235 | [17] -0.206 | [18] -0.129 | [19] 0.282 | [20] 0.262

SPCS3 (UniProt P61009)
inactive: [1] -0.081 | [2] 0.016 | [3] -0.057 | [4] -0.002 | [5] -0.045 | [6] 0.018 | [7] -0.01 | [8] 0.055 | [9] -0.057 | [10] 0.051 | [11] 0.012 | [12] 0.04 | [13] 0.044 | [14] -0.058 | [15] 0.002 | [16] 0.036 | [17] -0.003 | [18] -0.002 | [19] 0.021 | [20] 0.087

SRGN (UniProt P10124)
inactive: [1] 0.124 | [2] 0.002 | [3] -0.071 | [4] 0.004 | [5] 0.037 | [6] 0.096 | [7] 0.049 | [8] 0.047 | [9] 0.023 | [10] -0.047 | [11] 0.229 | [12] 0.093 | [13] -0.012 | [14] -0.097 | [15] -0.036 | [16] -0.076 | [17] -0.276 | [18] -0.035 | [19] 0.001 | [20] 0.2

SRSF5 (UniProt Q13243)
inactive: [1] 0 | [2] -0.026 | [3] -0.056 | [4] -0.095 | [5] 0.204 | [6] -0.033 | [7] -0.046 | [8] 0.109 | [9] 0.112 | [10] -0.078 | [11] 0.144 | [12] 0.317 | [13] 0.034 | [14] -0.28 | [15] 0.044 | [16] 0.141 | [17] -0.063 | [18] -0.12 | [19] 0.209 | [20] 0.19

2 neighbouring entries out of the list so far, quoted:
SRGN (UniProt P10124)
inactive: [1] 0.124 | [2] 0.002 | [3] -0.071 | [4] 0.004 | [5] 0.037 | [6] 0.096 | [7] 0.049 | [8] 0.047 | [9] 0.023 | [10] -0.047 | [11] 0.229 | [12] 0.093 | [13] -0.012 | [14] -0.097 | [15] -0.036 | [16] -0.076 | [17] -0.276 | [18] -0.035 | [19] 0.001 | [20] 0.2

SRSF5 (UniProt Q13243)
inactive: [1] 0 | [2] -0.026 | [3] -0.056 | [4] -0.095 | [5] 0.204 | [6] -0.033 | [7] -0.046 | [8] 0.109 | [9] 0.112 | [10] -0.078 | [11] 0.144 | [12] 0.317 | [13] 0.034 | [14] -0.28 | [15] 0.044 | [16] 0.141 | [17] -0.063 | [18] -0.12 | [19] 0.209 | [20] 0.19

Remaining list, next part

SPATA5L1 (UniProt Q9BVQ7)
inactive: [1] -0.029 | [2] 0.006 | [3] -0.022 | [4] -0.012 | [5] 0.053 | [6] -0.052 | [7] -0.043 | [8] 0.003 | [9] 0.009 | [10] -0.014 | [11] 0.026 | [12] 0.051 | [13] -0.015 | [14] -0.015 | [15] -0.008 | [16] 0.044 | [17] -0.039 | [18] -0.028 | [19] -0.01 | [20] 0.075
